This note sets out measurements from paper doi:10.1101/2025.09.03.673757.

Protein sequences, listed by entry. Tags and fused reporters are not part of them.
UniProt P59215: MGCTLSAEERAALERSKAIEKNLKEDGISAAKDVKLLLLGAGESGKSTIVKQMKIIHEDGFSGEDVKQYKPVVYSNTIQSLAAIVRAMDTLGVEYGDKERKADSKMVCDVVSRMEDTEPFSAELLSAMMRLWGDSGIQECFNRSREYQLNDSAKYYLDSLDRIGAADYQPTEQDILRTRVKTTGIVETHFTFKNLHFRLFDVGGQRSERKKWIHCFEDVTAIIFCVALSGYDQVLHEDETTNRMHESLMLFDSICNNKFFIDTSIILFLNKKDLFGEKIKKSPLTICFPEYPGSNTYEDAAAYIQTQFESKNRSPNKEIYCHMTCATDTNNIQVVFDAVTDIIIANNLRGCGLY
UniProt P63101: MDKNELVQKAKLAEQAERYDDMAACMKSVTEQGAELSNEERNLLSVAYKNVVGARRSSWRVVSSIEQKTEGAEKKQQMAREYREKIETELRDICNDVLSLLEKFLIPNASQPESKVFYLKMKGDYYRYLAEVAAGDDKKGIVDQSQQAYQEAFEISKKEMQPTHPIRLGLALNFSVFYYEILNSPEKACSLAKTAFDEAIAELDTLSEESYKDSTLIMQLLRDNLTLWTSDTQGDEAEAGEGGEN

Where two headings read alike, the source gives them in different places. No constants are given. Whether binding was seen depends on the method and setting. Binding seen in cells or lysates may run through a third protein. A yes stands for co-enrichment or nearness to the bait. Other partners may have been found.

Assay [1] addresses N-terminally His6-tagged wild-type Gαo (rat) (UniProt P59215). The experiment in a line: affinity purification with mass spectrometry.
The target is the same in assay [2]. The experiment in a line: affinity purification with mass spectrometry. The source holds these as a separate data set.

As for Ywhaz (from UniProt P63101 1-245), the binding result in assay [1] is reported as “binds”.

B1: Ywhag (protein, UniProt P61982 1-247)
chain: MVDREQLVQKARLAEQAERYDDMAAAMKNVTELNEPLSNEERNLLSVAYKNVVGARRSSWRVISSIEQKTSADGNEKKIEMVRAYREKIEKELEAVCQDVLSLLDNYLIKNCSETQYESKVFYLKMKGDYYRYLAEVATGEKRATVVESSEKAYSEAHEISKEHMQPTHPIRLGLALNYSVFYYEIQNAPEQACHLAKTAFDDAIAELDTLNEDSYKDSTLIMQLLRDNLTLWTSDQQDDDGGEGNN
In the case of B1, the binding entry in assay [2] is “binds”.

B2: RGS7 (protein, UniProt O54829 1-469)
chain: MAQGNNYGQTSNGVADESPNMLVYRKMEDVIARMQDEKNGIPIRTVKSFLSKIPSVFSGSDIVQWLIKNLTIEDPVEALHLGTLMAAHGYFFPISDHVLTLKDDGTFYRFQTPYFWPSNCWEPENTDYAVYLCKRTMQNKARLELADYEAESLARLQRAFARKWEFIFMQAEAQAKVDKKRDKIERKILDSQERAFWDVHRPVPGCVNTTEVDIKKSSRMRNPHKTRKSVYGLQNDIRSHSPTHTPTPETKPPTEDELHQQIKYWQIQLDRHRLKMSKVADSLLSYTEQYVEYDPFLVPPDPSNPWLSDDTTFWELEASKEPSQQRVKRWGFGMDEALKDPVGREQFLKFLESEFSSENLRFWLAVEDLKRRPIREVPSRVQEIWQEFLAPGAPSAINLDSKSYDKTTQNVKEPGRYTFEDAQEHIYKLMKSDSYPRFIRSSAYQELLQAKRKGKTLTSKRLTSLVQSY
Regarding B2, the binding result in assay [2] is “binds”.
